Reference: patent US11773093B1, “N-(pyrimido[2,3-b]indol-7-yl)acetamide compounds as antibacterial agents” (KING FAISAL UNIVERSITY, priority 2023, dated 2023)
≈ marks a conversion by molar mass, not a printed value.

Tests used:
Test in all cases: In vitro antibacterial activity (MIC, CLSI M07-A10 dilution)
Type in all cases: cell-based
[1] = system: Staphylococcus aureus ATCC 29213; conditions: ATCC29213
[2] = system: Staphylococcus aureus ATCC BAA-1556 (MERSA resistant); conditions: ATCCBAA1556
[3] = system: Staphylococcus epidermidis
[4] = system: Escherichia coli MTCC 443; conditions: MTCC443

For CN[C@H](CC(C)C)C(=O)N[C@H]1C(=O)N[C@@H](CC(N)=O)C(=O)N[C@H]2C(=O)N[C@H]3C(=O)N[C@H](C(=O)N[C@H](C(=O)O)c4cc(O)cc(O)c4-c4cc3ccc4O)[C@H](O)c3ccc(c(Cl)c3)Oc3cc2cc(c3O[C@@H]2O[C@H](CO)[C@@H](O)[C@H](O)[C@H]2O[C@H]2C[C@](C)(N)[C@H](O)[C@H](C)O2)Oc2ccc(cc2Cl)[C@H]1O [Vancomycin, reference compound], the MIC [1] was 1 µg/mL (≈ 0.69 µM), the MIC [2] was 1 µg/mL (≈ 0.69 µM) and the MIC [3] was 1 µg/mL (≈ 0.69 µM). For the same compound, the MIC [4] was > 128 µg/mL.
